# From paper PMC6185962
# Results are given in words; binding and its absence hold for the method and conditions named. In cells and extracts the contact can be indirect. A result given as binding can be weak or reduced; the word gives no strength. Tags and fused reporters may be left off the sequences shown.
# Target: T1, Myc-tagged DUSP10 WT (UniProt Q9ESS0)
# T1 sequence: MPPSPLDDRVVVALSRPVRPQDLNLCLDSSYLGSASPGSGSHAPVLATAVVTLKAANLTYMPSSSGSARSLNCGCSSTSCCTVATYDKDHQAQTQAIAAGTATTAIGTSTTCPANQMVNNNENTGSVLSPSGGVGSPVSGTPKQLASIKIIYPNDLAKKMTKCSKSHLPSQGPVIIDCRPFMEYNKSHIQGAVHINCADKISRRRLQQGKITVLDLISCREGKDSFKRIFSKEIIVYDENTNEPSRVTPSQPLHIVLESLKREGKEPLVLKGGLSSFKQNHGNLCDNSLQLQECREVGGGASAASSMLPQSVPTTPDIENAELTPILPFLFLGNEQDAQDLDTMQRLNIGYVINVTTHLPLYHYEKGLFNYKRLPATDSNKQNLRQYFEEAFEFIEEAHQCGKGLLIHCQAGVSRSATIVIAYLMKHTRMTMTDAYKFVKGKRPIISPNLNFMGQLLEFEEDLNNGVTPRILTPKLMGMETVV
# Test: co-IP; 293T cells transfected with Flag-tagged GATA3 and/or Myc-tagged DUSP10; immunoprecipitation with mAb to Flag or mAb to Myc, immunoblot for p38; IL-33 not added to the cells
substance,measurement,value
p38 MAPK (human (endogenous in 293T)) (enzyme),binding,binds
